PubChem BioAssay AID1259269 – Sanger Institute, 2017

Screen: 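Confirm siRNA and drug combinations that act together against HCC2998 cells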 (follow-up of hits)
Cell system: HCC2998 human colorectal cancer cells
Reagent: single siRNA against human genes
Challenge: anchor drug BYL719 1 µM, cetuximab 5 µg/ml or trametinib 10 nM; DMSO vehicle as comparison arm
Measurement: 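Replicate-averaged survival relative to non-targeting control siRNA with DMSO or drug (BYL719 1 µM, cetuximab 5 µg/ml, trametinib 10 nM); per-drug synergy score, higher for stronger synthetic lethality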
Direction: synergy score with BYL719 and synergy score with cetuximab and synergy score with trametinib: higher = stronger synthetic lethal effect with the drug; viability with DMSO: higher = more cells survive the knock-down; viability with trametinib: higher = more cells survive knock-down plus drug
Hit rule: 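Active if the synergy score exceeds 0.10 for at least one of BYL719, cetuximab or trametinib; otherwise inactive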
Calls: active = synergy with at least one drug; inactive = no synergy with any drug
This is one part, drawn at random, of 160 deposited reagents. In the full data, 108 (68%) got an active call. 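Viability cannot exceed 1; how synergy scores were computed is not described.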 A number with no mark means an inactive call. The numbers tell different reagents against one gene apart. No viability above 1 is reported: the scale is capped. Not given: the amount of reagent, the time to read-out.

gene | siRNA no. | synergy score with BYL719 | synergy score with cetuximab | synergy score with trametinib | viability with DMSO (fraction of control) | viability with trametinib (fraction of control)
COASY (Coenzyme A synthase) | 1 | -0.0892 | -0.164 | -0.143 | 0.508 | 0.428
COASY (Coenzyme A synthase) | 2 | -0.0478 | -0.0785 | 0.0246 | 0.31 | 0.149
COASY (Coenzyme A synthase) | 3 | -0.0811 | -0.124 | -0.0193 | 0.105 | 0.0785
COASY (Coenzyme A synthase) | 4 | 0.177 (active) | 0.264 | 0.139 | 0.776 | 0.296
ACVR1 (activin A receptor type 1) | 1 | -0.0191 (active) | 0 | 0.24 | 1 | 0.321
ACVR1 (activin A receptor type 1) | 2 | -0.0837 (active) | -0.036 | 0.288 | 0.903 | 0.219
ACVR1 (activin A receptor type 1) | 3 | -0.0344 (active) | 0 | 0.219 | 1 | 0.342
ACVR1 (activin A receptor type 1) | 4 | 0.179 (active) | 0.157 | 0.301 | 0.987 | 0.253
PIK3CA | 1 | 0.0151 | 0.0506 | 0.081 | 0.779 | 0.356
PIK3CA | 2 | 0.0818 | 0.0565 | 0.081 | 0.657 | 0.288
PIK3CA | 3 | -0.133 | -0.165 | 0.0673 | 0.454 | 0.188
PIK3CA | 4 | -0.265 (active) | -0.178 | 0.188 | 0.64 | 0.171
PRAG1 (PEAK1 related, kinase-activating pseudokinase 1) | 1 | 0.3 (active) | 0 | 0.294 | 1 | 0.268
PRAG1 (PEAK1 related, kinase-activating pseudokinase 1) | 2 | 0.63 (active) | -0.000249 | 0.185 | 0.85 | 0.293
PRAG1 (PEAK1 related, kinase-activating pseudokinase 1) | 3 | -0.183 | -0.0492 | -0.139 | 0.838 | 0.609
PRAG1 (PEAK1 related, kinase-activating pseudokinase 1) | 4 | -0.148 | 0.00587 | -0.0578 | 0.965 | 0.599

Copied from above for reference:
gene | siRNA no. | synergy score with BYL719 | synergy score with cetuximab | synergy score with trametinib | viability with DMSO (fraction of control) | viability with trametinib (fraction of control)
PIK3CA | 3 | -0.133 | -0.165 | 0.0673 | 0.454 | 0.188
PIK3CA | 4 | -0.265 (active) | -0.178 | 0.188 | 0.64 | 0.171
PRAG1 (PEAK1 related, kinase-activating pseudokinase 1) | 1 | 0.3 (active) | 0 | 0.294 | 1 | 0.268
PRAG1 (PEAK1 related, kinase-activating pseudokinase 1) | 2 | 0.63 (active) | -0.000249 | 0.185 | 0.85 | 0.293

The list goes on:
gene | siRNA no. | synergy score with BYL719 | synergy score with cetuximab | synergy score with trametinib | viability with DMSO (fraction of control) | viability with trametinib (fraction of control)
CSNK2A2 (casein kinase 2 alpha 2) | 1 | 0.193 (active) | 0.18 | 0.251 | 0.842 | 0.222
CSNK2A2 (casein kinase 2 alpha 2) | 2 | -0.0926 (active) | -0.0484 | 0.116 | 0.537 | 0.185
CSNK2A2 (casein kinase 2 alpha 2) | 3 | 0.217 (active) | 0.205 | 0.325 | 1 | 0.237
CSNK2A2 (casein kinase 2 alpha 2) | 4 | 0.0448 | 0.0631 | 0.0632 | 0.253 | 0.0788
SYK (spleen associated tyrosine kinase) | 1 | -0.0126 | 0.0839 | 0.0626 | 0.86 | 0.42
SYK (spleen associated tyrosine kinase) | 2 | -0.475 | -0.262 | 0.0847 | 0.594 | 0.249
SYK (spleen associated tyrosine kinase) | 3 | 0.252 (active) | -0.0949 | 0.353 | 0.817 | 0.106
SYK (spleen associated tyrosine kinase) | 4 | -0.116 (active) | 0 | 0.182 | 1 | 0.379
PLK1 (polo like kinase 1) | 1 | 0.000941 | 0.0399 | 0.00705 | 0.159 | 0.0822
PLK1 (polo like kinase 1) | 2 | 0.059 (active) | 0.136 | 0.0236 | 0.258 | 0.122
PLK1 (polo like kinase 1) | 3 | -0.0663 | -0.0354 | -0.066 | 0.172 | 0.163
PLK1 (polo like kinase 1) | 4 | -0.00568 | -0.0121 | -0.0258 | 0.113 | 0.0892
CDK6 (cyclin dependent kinase 6) | 1 | -0.00066 (active) | 0 | 0.154 | 1 | 0.407
CDK6 (cyclin dependent kinase 6) | 2 | -0.07 | 0.0596 | -0.00802 | 0.203 | 0.122
CDK6 (cyclin dependent kinase 6) | 3 | -0.116 (active) | 0 | 0.285 | 1 | 0.276
CDK6 (cyclin dependent kinase 6) | 4 | -0.145 (active) | 0.377 | 0.378 | 0.938 | 0.149
IKBKB (inhibitor of nuclear factor kappa B kinase subunit beta) | 1 | -0.0659 (active) | -0.00298 | 0.123 | 0.432 | 0.12
IKBKB (inhibitor of nuclear factor kappa B kinase subunit beta) | 2 | -0.0243 (active) | 0.368 | 0.191 | 0.763 | 0.237
IKBKB (inhibitor of nuclear factor kappa B kinase subunit beta) | 3 | -0.199 (active) | 0.0252 | 0.137 | 0.881 | 0.358
IKBKB (inhibitor of nuclear factor kappa B kinase subunit beta) | 4 | -0.473 | -0.244 | -0.0454 | 0.391 | 0.265
BRAF (B-Raf proto-oncogene, serine/threonine kinase) | 1 | -0.332 | -0.207 | -0.289 | 0.492 | 0.565
BRAF (B-Raf proto-oncogene, serine/threonine kinase) | 2 | 0.0807 (active) | -0.0384 | 0.116 | 0.604 | 0.223
BRAF (B-Raf proto-oncogene, serine/threonine kinase) | 3 | 0.0032 | -0.0518 | -0.0123 | 0.414 | 0.245
BRAF (B-Raf proto-oncogene, serine/threonine kinase) | 4 | -0.064 | 0.0816 | -0.0565 | 0.689 | 0.443
